± gives the standard deviation. The list shows a part of the results, in another mix than the full data. Many entries were measured with a wide error.
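Also: 1 nM active piRISC with 0.1 nM target library at 33 °C single turnover.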

The test system of the first test is MIWI (PIWIL1) piRISC loaded with L1MC piRNA (30 nt). As to the kind of experiment: pre-steady-state target cleavage rate (min^-1); MIWI and MILI are mouse PIWI proteins and EfPiwi is from a freshwater sponge; tags in brackets are library labels; higher = faster piRNA-guided slicing of the target. The conditions noted are these: guide: L1MC piRNA 5'p-UAACUAAAUACUAUGCAAGCUGUAGGUCCU; auxiliary factor: 500 nM mouse GTSF1. Summed up:
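Reactions were run for 0–8 or 0–960 min at 33 °C in HEPES–potassium acetate buffer, combining 1 nM active affinity-purified piRISC with one synthetic guide, […] transcribed, DNA-blocked target RNA library and, in some cases, 500 nM GTSF1 partner protein. Sequencing of uncleaved targets followed, with normalisation to depth and to weakly complementary targets. Three trials were pooled, k3 was capped at 0.0001 min^-1, and the pre-steady-state cleavage rate was taken from a burst-and-steady-state fit.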
Turning to UGGACCUACAGCUUGCAUAUUAUUUAGUUA, the “pre-steady-state target cleavage rate” value was determined as 1.71 ± 0.12. Regarding UCCUGGAUGUCGAACGUAUCUAAAUAGUUA, the “pre-steady-state target cleavage rate” value amounted to 0.000269 ± 0.015. Still for that read-out and setting: under UCCUGGAUGUCGAACCUUAGAAUUUAGUUA stands 0.000303 ± 0.013. Still for that read-out and setting: under UCCUGGAUGUCGAACCAUAGUAUUUAGUCUA stands 0.000155 ± 0.036.

The test is the same for the next values; noted with them: guide: L1MC piRNA 5'p-UAACUAAAUACUAUGCAAGCUGUAGGUCCU; auxiliary factor: none (no GTSF1).
As to UCCACCUACAGCUUCGAUAGUAUUUAGUUA, the “pre-steady-state target cleavage rate” value came out at 0.0021 ± 0.0023. The same measure, in the same setting: with AGGACCUACAGCUUCCAUAGUAUUUUCAAA the figure was 0.000825 ± 0.011; with AGGUGCUACAGCUUGCAUAGUAUUUUCAAA, 0.00187 ± 0.0034.

Take UCCUGCUACAGCUUCCAUAGUAUAUAGUUA: the “pre-steady-state target cleavage rate” value amounted to 0.000988 ± 0.01. Consider UCGACCUACAGCUUGCAUACAAUUUACAAA, for which the “pre-steady-state target cleavage rate” value is 0.000807 ± 0.0086. The same measure, in the same setting: with AGGACCUACAGCUUCGUUAGUAUUUAGUAA the figure was 0.000414 ± 0.0088. Still for that read-out and setting: under UCCACCUUGUGCUUGCAUAGUAUUUUCAAA stands 0.00149 ± 0.0022; under AGGACCUACAGCUUCCAUAGUAUUUAGAUA, 0.0013 ± 0.0057; under UCCUGGAUGUCGAACCAUAGUAUCUAGUUA, 0.000227 ± 0.021. The same measure, in the same setting: under UGGACCUAGUCCUUGCAUAGUAUUUAGAAA stands 0.00158 ± 0.0024; under AGGACCUACAGCAACCAUAGUAUUUUCAAA, 0.000189 ± 0.018. On to UCGACCUACAGCUACCAUAGUAUUUAGAAA, for which the “pre-steady-state target cleavage rate” value was found to be 0.000254 ± 0.015. Still for that read-out and setting: with UCCUGGAUGUCGAACGAUAGCUAUUUAGUUA the figure was 0.000228 ± 0.019. Consider UCCUGCUACAGCUUGCAUAGUAUUAUGAAA, for which the “pre-steady-state target cleavage rate” value came to 0.00131 ± 0.0054. On the same count and under the same terms, with UGGACCUACAGCUUGGUUAGUAUUUACAAA the figure was 0.00136 ± 0.0029. For UCGACCUACAGCUUGCAUAGUAAAAAGUUA, the “pre-steady-state target cleavage rate” value was determined as 0.00224 ± 0.0038.

With UCGACCUACAGCUUGCAUAGUAUUAUCUAA, the “pre-steady-state target cleavage rate” value was found to be 0.00227 ± 0.0038. Turning to UCGACCUACAGGAUGCAUAGUAUUUACAAA, the “pre-steady-state target cleavage rate” value amounted to 0.00098 ± 0.0075.

As for UCGACCUACAGCUUCGAUAGUAUUUACAAA, the “pre-steady-state target cleavage rate” value was 0.000813 ± 0.0076.

As to UCCACCUACAGCUUGCAUACAUUUUAGUAA, the “pre-steady-state target cleavage rate” value was found to be 0.000209 ± 0.013.

Take AGGACCUACAGCUUGCUAUGUAUUUAGAAA: the “pre-steady-state target cleavage rate” value stood at 0.000977 ± 0.0061.

For the sequence UCGACCUACAGCUUGCAUAGAUAUUUCAAA, the “pre-steady-state target cleavage rate” value was determined as 0.000629 ± 0.0096.

With AGGUGGUACAGCUUGCAUAGUAUUUUCAAA, the “pre-steady-state target cleavage rate” value came out at 0.00174 ± 0.0033. In the case of UCGACCUACAGCUUGCAUAGUAUUAUGAAA, the “pre-steady-state target cleavage rate” value was 0.00221 ± 0.003. Same read-out and setting: under AGGACCUACACGUUGCAUAGUAUUUUCAAA stands 0.00184 ± 0.0033.

As for UCGACCUACAGCUUGCAUAGAUUUUAGUAA, the “pre-steady-state target cleavage rate” value was 0.00172 ± 0.0035. Consider UGGACCUACAGCAAGCAUAGUAUUUAGAAA, for which the “pre-steady-state target cleavage rate” value came to 0.000684 ± 0.0052. The same measure, in the same setting: under UGGACCUACAGCUUGCAUUCUAUUUAGAAA stands 0.00123 ± 0.0039; under UCCACCUACAGCUUGCAUAGUAAAAUCAAA, 0.00034 ± 0.014; under AGGACCUACAGCUUGCAUCAGUAUUUAGUUA, 0.000872 ± 0.01. As for UCCUGGAUGUCGAUGCAUAGAAUUAAGUUA, the “pre-steady-state target cleavage rate” value was found to be 0.000427 ± 0.012. The same measure, in the same setting: with UCGACCUUGAGCUUGCAUAGUAUUUUCAAA the figure was 0.00201 ± 0.0026.

As for UCCACCUACAGCUUGCAUAGGUAUUUAGUUA, the “pre-steady-state target cleavage rate” value worked out at 0.000918 ± 0.0092. Same read-out and setting: under UCCACCUACAGCUUCCAUAGUAUAUAGUUA stands 0.000896 ± 0.0091; under UCCUGGAUGUCGAACGAUAGUAUUUAGUAUA, 0.00036 ± 0.013; under UGGACCUACAGCUUGCAUAGAUUUUAGAAA, 0.000394 ± 0.0069.
